# Assay results as given in PubChem BioAssay AID1347076 (National Center for Advancing Translational Sciences (NCATS), 2019).
# The whole screen tested about 400,000 compounds, of which about 13,000 (3.2%) were called active. This list was built around the results that the source calls inconclusive (neither active nor inactive); the mix of calls is not that of the screen. Calls follow the shape of the dose curve; as a rule, active = well fitted cell-killing curve with a large enough effect; inconclusive = small, poorly fitted or top-dose-only effect, or effect the other way; inactive = flat fitted curve, though single readings scatter. Where the call is inconclusive, the potency comes from a doubtful curve fit.
# Assay: qHTS assay for MDR1-selective chemotherapeutics: Primary screen using the drug-selected MDR subline cells KB-V1; also: nearly all actives have a fitted effect of over 60% in size
# Details: KB-V1 MDR cells viability, CellTiter-Glo, 72 h; series mostly up to 46.1 µM
# Procedure, shortened: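 Cytotoxicity via CellTiter-Glo luminescence after 72 h compound exposure at 37 degrees C. Cells: drug-selected KB-V1 line, DMEM phenol-red free plus 10% FBS. Compounds tested at multiple concentrations; normalized data fitted to concentration-effect curves.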
# Potency is read from the fitted curve at half-maximal effect.
row,Structure (SMILES),Potency
1,COc1ccccc1C1CC(=O)Nc2cc(C)c(C)cc21 (stereo not given),active: 9.2 µM
2,CCOc1ccccc1C(=O)NC1(C(F)(F)F)C(=O)Nc2c1c(=O)[nH]c(=O)n2-c1ccccc1 (stereo not given),"inconclusive: 29.1 µM [rising, single point]"
3,CCOC(=O)C1=NNC(C(=O)c2ccc(Cl)cc2)C1c1ccc(OC)cc1 (stereo not given),"inconclusive: 16.4 µM [cytotoxic, single point]"
4,CCC1CCCCN1C(=O)CSc1nnc(-c2c[nH]c3ccccc23)o1 (stereo not given),inactive
5,CCC1CCCCN1CCCNC(=O)C1CCN(Cc2nc(-c3ccc(Cl)cc3)oc2C)CC1 (stereo not given),inactive
6,CN(C)c1ccc(C(CNC(=O)c2ccco2)N2CCCC2)cc1 (stereo not given),"inconclusive: 3.26 µM [cytotoxic, partial curve, poor fit]"
7,COc1ccc(Br)cc1CN(C)CC(=O)Nc1c(Cl)cccc1Cl,"inconclusive: 13 µM [cytotoxic, partial curve]"
8,Cn1cc(/C(Cc2ccccc2)=N\O)c2ccccc21,"inconclusive: 29.1 µM [cytotoxic, single point]"
9,CC(C)CN1C(=O)c2ccc(C(=O)Nc3ccccn3)cc2C1=O,"inconclusive: 29.1 µM [rising, partial curve, poor fit]"
10,COc1cc(OC)cc(-c2nnc(SCC(=O)N3CCCC3)o2)c1,"inconclusive: 18.4 µM [cytotoxic, single point]"
11,O=C(NS(=O)(=O)Oc1ccc(F)c(Cl)c1)OC[C@@H]1CCCN2CCCCC12 (stereo not given in full),inactive
12,O=C(c1ccc2snnc2c1)N1CCN(c2ccccn2)CC1,"inconclusive: 14.6 µM [cytotoxic, partial curve, poor fit]"
13,COc1ccc2[nH]c(C)c(CCN(Cc3cccs3)C(=S)Nc3ccccc3OC)c2c1,"inconclusive: 18.4 µM [rising, single point]"
14,CC1(C)CC(=O)C(C=NCCN2CCN(C(=S)Nc3cccc(Cl)c3)CC2)=C(O)C1,"inconclusive: 15.8 µM [rising, partial curve, poor fit]"
15,Cc1c(C(=O)N/N=C/c2ccc(Cl)cc2)[nH]c2ccc(Cl)cc12,"inconclusive: 5.17 µM [cytotoxic, partial curve, poor fit]"
16,CCn1c(SCC(=O)N2CCN(c3ccc(F)cc3)CC2)nnc1-c1ccncc1,active: 18.4 µM
17,CC(C)C(=O)NC(=S)Nc1ccc(S(=O)(=O)N2CCCC2)cc1,active: 14.6 µM
18,O=C(N/N=C/c1ccc2ccccc2c1)c1ccc(COc2ccc3c(c2)CCC3)o1,inactive
19,O=C(Nc1c(C(=O)Nc2ccccc2F)oc2ccccc12)c1cc2ccccc2o1,inactive
20,O=C(CN1CCC(n2nnc3cc(F)ccc32)CC1)Nc1ccc2c(c1)CCC2,"inconclusive: 8.2 µM [cytotoxic, partial curve]"
21,CCc1sc(C(=O)N2CCc3cc(OC)c(OC)cc3C2CC(=O)O)cc1C (stereo not given),inactive
22,COc1ccc(NC(=S)N(CCCN2CCOCC2)Cc2cn(C)c3ccccc23)cc1,inactive
23,O=C1C(Cl)=C(NCc2ccco2)C(=O)c2ccccc21,"inconclusive: 16.4 µM [cytotoxic, single point]"

row,Structure (SMILES),Potency
1,CC[n+]1c(-c2ccc(C)cc2)csc1Nc1c(C)n(C)n(-c2ccccc2)c1=O,"inconclusive: 10.3 µM [cytotoxic, partial curve]"
2,COC(=O)CCn1cnc2onc(-c3cc(F)cc(F)c3)c2c1=O,inactive
3,Fc1ccc2ncc3c(-c4ccccc4)n[nH]c3c2c1,inactive
4,Cc1ccccc1C(=O)NC1CC2CCCC(C1)N2Cc1ccc(Cl)cc1 (stereo not given),"inconclusive: 8.2 µM [cytotoxic, single point]"
5,COCCNC(=S)Nc1ccccc1Cc1ccccc1,inactive
6,Cc1ccc(N=Nc2c(N)nn(-c3ccccc3)c2N)cc1,active: 6.51 µM
7,Cc1ccc(N2C(=O)C3NN=C(C(=O)OCc4ccccc4)C3C2=O)c(C)c1 (stereo not given),"inconclusive: 25.9 µM [rising, single point]"
8,O=C(NNc1nc2c(F)cc(F)cc2s1)C1COc2ccccc2O1 (stereo not given),"inconclusive: 29.1 µM [rising, single point]"
9,CC(C)(C)OC(=O)NCCCCCNC(=O)c1[nH]cnc1C(=O)N[C@@H](CCCCNC(=O)OC(C)(C)C)C(=O)OC(C)(C)C,"inconclusive: 29.1 µM [cytotoxic, single point]"
10,COc1cc(OC)c(C2N(c3ccc(Cl)cc3)C(=O)C3CCCN32)cc1OC (stereo not given),"inconclusive: 29.1 µM [rising, single point]"
11,CC(=O)Nc1cccc(N2C(=O)CCC2=O)c1,"inconclusive: 29.1 µM [rising, single point]"
12,CCOc1ccccc1N1CCN(C(=S)NCc2ccco2)CC1,"inconclusive: 13 µM [cytotoxic, partial curve]"
13,Cc1ccc(S(=O)(=O)Nc2ccc(S(=O)(=O)NC(C)(C)C)cc2)cc1,active: 18.4 µM
14,COc1ccccc1OC(C)C(=O)N1CCN(Cc2ccc3c(c2)OCO3)CC1 (stereo not given),"inconclusive: 20.6 µM [cytotoxic, partial curve, poor fit]"
15,Cn1cc(-c2ccc(C(=O)Nc3cccc(Oc4ccccc4)c3)c3occc23)cn1,inactive
16,Cc1ccc(C(=O)N/C(=C\c2ccc3c(c2)OCO3)C(=O)Nc2ccc(C(=O)O)cc2)cc1,"inconclusive: 23.1 µM [rising, partial curve, poor fit]"
17,Cc1ccc(CN2CCc3nc(N4CCN(C)CC4)ncc3C2)s1,inactive
18,CN(CC(=O)NCCc1ccccc1)S(=O)(=O)c1cccs1,"inconclusive: 18.4 µM [cytotoxic, single point]"
19,COc1ccc(CNC(=O)C(=O)NCC2CCCN2S(=O)(=O)c2cccs2)cc1 (stereo not given),"inconclusive: 7.31 µM [cytotoxic, partial curve]"
20,CC(C)(C)CC(=O)NC1CC(=O)N(c2ccc3c(c2)OCCO3)C1 (stereo not given),"inconclusive: 0.517 µM [rising, full curve]"
21,O=C(C(Cc1ccccc1)n1cccc1)N1CCN(c2ccccc2)CC1 (stereo not given),inactive
22,CCOC(=O)[C@]12CCCC=C1N(Cc1ccco1)C(=O)[C@H](CC(=O)N1CCCC1)C2,"inconclusive: 4.11 µM [cytotoxic, full curve]"

# An excerpt of these results, bar-delimited.
row | Structure (SMILES) | Potency
7 | COc1ccc(Br)cc1CN(C)CC(=O)Nc1c(Cl)cccc1Cl | inconclusive: 13 µM [cytotoxic, partial curve]
15 | Cn1cc(-c2ccc(C(=O)Nc3cccc(Oc4ccccc4)c3)c3occc23)cn1 | inactive
